Publication PMC11315909
These are yes or no findings as the source states them, for the method shown. Binding seen in cells or lysates may run through a third protein. Here binding means that the protein was enriched with, or labelled near, the bait; the list need not be complete.

Protein sequences, listed by entry. Tags and fused reporters are not part of them.
UniProt Q9WTU0: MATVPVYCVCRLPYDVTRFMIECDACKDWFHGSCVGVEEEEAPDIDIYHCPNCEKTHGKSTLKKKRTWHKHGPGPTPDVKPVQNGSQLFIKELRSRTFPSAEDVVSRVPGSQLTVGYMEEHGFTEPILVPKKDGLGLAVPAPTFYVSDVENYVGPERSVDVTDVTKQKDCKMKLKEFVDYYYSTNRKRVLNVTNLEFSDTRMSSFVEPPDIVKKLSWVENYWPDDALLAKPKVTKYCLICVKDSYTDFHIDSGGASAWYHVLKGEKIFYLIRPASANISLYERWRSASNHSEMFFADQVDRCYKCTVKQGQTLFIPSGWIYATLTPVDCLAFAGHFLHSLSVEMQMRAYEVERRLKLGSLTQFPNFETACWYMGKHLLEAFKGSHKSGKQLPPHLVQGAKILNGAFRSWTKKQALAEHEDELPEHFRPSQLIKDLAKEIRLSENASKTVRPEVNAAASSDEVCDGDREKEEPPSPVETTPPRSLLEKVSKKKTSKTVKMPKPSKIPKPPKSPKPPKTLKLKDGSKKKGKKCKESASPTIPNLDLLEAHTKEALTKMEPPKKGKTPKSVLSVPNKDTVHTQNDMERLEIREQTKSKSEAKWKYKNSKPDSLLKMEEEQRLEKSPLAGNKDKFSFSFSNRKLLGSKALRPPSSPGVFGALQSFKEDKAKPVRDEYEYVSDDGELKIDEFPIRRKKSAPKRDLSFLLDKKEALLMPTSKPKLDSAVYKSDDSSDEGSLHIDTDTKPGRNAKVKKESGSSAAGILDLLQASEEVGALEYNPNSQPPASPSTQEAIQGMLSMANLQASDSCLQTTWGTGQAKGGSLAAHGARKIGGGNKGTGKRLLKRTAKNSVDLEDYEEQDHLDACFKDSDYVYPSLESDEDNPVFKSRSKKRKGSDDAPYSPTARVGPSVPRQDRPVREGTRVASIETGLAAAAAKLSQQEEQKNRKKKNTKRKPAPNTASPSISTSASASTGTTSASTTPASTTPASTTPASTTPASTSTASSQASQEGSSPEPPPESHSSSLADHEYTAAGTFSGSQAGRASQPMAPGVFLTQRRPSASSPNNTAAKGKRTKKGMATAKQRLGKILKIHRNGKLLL
UniProt Q08943: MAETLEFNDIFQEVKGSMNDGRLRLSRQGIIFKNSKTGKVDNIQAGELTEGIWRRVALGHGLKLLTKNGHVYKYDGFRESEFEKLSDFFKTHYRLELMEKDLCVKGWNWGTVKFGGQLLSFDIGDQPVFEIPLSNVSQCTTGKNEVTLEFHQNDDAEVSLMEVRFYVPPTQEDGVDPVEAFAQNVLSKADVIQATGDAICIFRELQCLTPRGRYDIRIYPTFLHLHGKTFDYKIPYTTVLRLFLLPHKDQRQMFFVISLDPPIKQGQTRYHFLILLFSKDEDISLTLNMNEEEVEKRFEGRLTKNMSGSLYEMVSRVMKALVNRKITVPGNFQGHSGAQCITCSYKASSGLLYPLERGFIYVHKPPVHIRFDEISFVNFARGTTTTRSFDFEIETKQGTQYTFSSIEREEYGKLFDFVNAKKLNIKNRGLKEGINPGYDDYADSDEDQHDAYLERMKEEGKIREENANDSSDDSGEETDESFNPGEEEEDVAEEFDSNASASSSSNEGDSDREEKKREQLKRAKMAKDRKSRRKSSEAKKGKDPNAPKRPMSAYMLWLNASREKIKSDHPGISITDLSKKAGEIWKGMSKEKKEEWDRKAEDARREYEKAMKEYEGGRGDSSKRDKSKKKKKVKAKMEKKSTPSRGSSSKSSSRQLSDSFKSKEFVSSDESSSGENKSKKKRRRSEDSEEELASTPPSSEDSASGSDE

B1: heterochromatin protein 1 binding protein 3 (HP1BP3) (protein, UniProt Q3TEA8 1-554)
chain: MATDMSQGELIHPKALPLIVGAQLIHADKLGEKAEDTTMPIRRAVNSTRETPPKSKLAEGEEEKPEPDGSSEESISTVEEQENETPPATSSEAEQPKGEPESGEKEENNNKSAEEPKKDEKDQSKEKEKKVKKTIPAWATLSASQLARAQRQTPMASSPRPKMDAILTEAIKACFQKTGASVVAIRKYIIHKYPSLGLERRGYLLKQALKRELNRGVIRQVKGKGASGSFVVVQKSKPPQKSKNRKKGSALDPEPQVKLEDVLPLAFTRLCEPKEASYSLIRKYVSQYYPKLRVDIRPQLLKNALQRAVERGQLEQITGKGASGTFQLKKSGEKPLLGGSLMEYAILSAIAAMNEPKTCSTTALKKYVLENHPGANSNYQMHLLKKTLQKCEKNGWLEQISGKGFSGTFQLSFPYYPSPGVLFPKKESGGSDDEDEDDDDDESSEDSEDEEPPPKRSLQKKTPAKSQGKTASMKQRGSKPARKVPAAQRGKVRPLPKKAPPKAKTPARKARPSPSVIKKPSGSSSRKPIASARKEAKLPGKGKSAMKKSFKTKK

Target: PHF2 (mouse (endogenous in NSCs)) (UniProt Q9WTU0)
Experiment: affinity purification with mass spectrometry; endogenous PHF2 immunoprecipitated with anti-PHF2 antibody from shCT and shPHF2 mouse NSC extracts (IPH buffer: 50 mM Tris-HCl pH 7.5, 150 mM NaCl, 5 mM EDTA, 0.5% NP-40), IgGs as control; immunopellets analysed by LC-MS/MS

Molecule	binding
RL14 (from UniProt Q9CR57 1-217)	binds
RL29 (from UniProt P47915 1-160)	binds
SSRP1 (from UniProt Q08943 1-708)	binds
B1	binds
